Results deposited as PubChem BioAssay AID1259308 (NCATS, 2017).
This is one part, drawn at random, of about 59,000 deposited reagents. About 1,510 of them (2.6%) count as active. 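Calls use total luciferase alone and ignore viability, so some active siRNAs may act by altering cell number.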 Reagents against one gene are numbered here.

Purpose: 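Knock-downs that increase output of a recombinant reporter protein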 (primary screen)
Cell system: human HEK293 embryonic kidney cells stably expressing firefly luciferase (HEK-CMV-Luc2-Hygro)
Knock-down reagent: single siRNA against human genes, 0.8 pmol siRNA per well
Duration: 72 h
Read-out: 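Luciferase light (ONE-Glo) measured on one replicate plate set and viability (CellTiter-Glo) on the other, scaled to a negative control siRNA, with robust z-scores and luciferase per cell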
Reading the numbers: total luciferase, z-score and total luciferase, % of control: higher = more reporter protein produced; luciferase per cell, z-score: higher = more reporter output per viable cell; viable cells, % of control: higher = more viable cells
Rule for the call: 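Active when the median/MAD z-score for overall luciferase is greater than 3; a gene was taken forward for validation with new siRNAs if at least two of its three siRNAs passed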
Calls: active = raised luciferase; inactive = no rise

Gene | reagent no. | total luciferase, z-score | total luciferase, % of control | luciferase per cell, z-score | viable cells, % of control | Call
OR4D10 (olfactory receptor family 4 subfamily D member 10) | 1 | -0.965 | 62.7 | -1.03 | 91.8 | inactive
OR4D10 (olfactory receptor family 4 subfamily D member 10) | 2 | -0.454 | 72.9 | -0.541 | 93.9 | inactive
OR4D10 (olfactory receptor family 4 subfamily D member 10) | 3 | -0.323 | 75.5 | -0.449 | 94.9 | inactive
PRG2 (proteoglycan 2, pro eosinophil major basic protein) | 1 | -0.283 | 76.3 | -0.391 | 94.5 | inactive
PRG2 (proteoglycan 2, pro eosinophil major basic protein) | 2 | 0.452 | 90.9 | 0.571 | 87.4 | inactive
PRG2 (proteoglycan 2, pro eosinophil major basic protein) | 3 | 1.8 | 118 | 2 | 77.7 | inactive
ABCG8 (ATP binding cassette subfamily G member 8) | 1 | -1.82 | 45.7 | -1.01 | 66.6 | inactive
ABCG8 (ATP binding cassette subfamily G member 8) | 2 | 1.42 | 110 | 1.5 | 82.8 | inactive
ABCG8 (ATP binding cassette subfamily G member 8) | 3 | -1.35 | 55.1 | -0.768 | 75.4 | inactive
ZNF438 (zinc finger protein 438) | 1 | -1.35 | 55 | -1.02 | 80.4 | inactive
ZNF438 (zinc finger protein 438) | 2 | 0.247 | 86.8 | -0.214 | 103 | inactive
ZNF438 (zinc finger protein 438) | 3 | -1.66 | 48.9 | -2.61 | 109 | inactive
RNF146 (ring finger protein 146) | 1 | 1.44 | 111 | 0.529 | 107 | inactive
RNF146 (ring finger protein 146) | 2 | 0.661 | 95 | 0.403 | 95.5 | inactive
RNF146 (ring finger protein 146) | 3 | 0.918 | 100 | 0.9 | 88.3 | inactive
OR5L2 (olfactory receptor family 5 subfamily L member 2) | 1 | -2.19 | 38.4 | -0.674 | 51.3 | inactive
OR5L2 (olfactory receptor family 5 subfamily L member 2) | 2 | 0.567 | 93.2 | 0.486 | 91.6 | inactive
OR5L2 (olfactory receptor family 5 subfamily L member 2) | 3 | 2.99 | 141 | 2.44 | 83 | inactive
SRPX (sushi repeat containing protein X-linked) | 1 | -0.413 | 73.7 | -1.11 | 110 | inactive
SRPX (sushi repeat containing protein X-linked) | 2 | -0.661 | 68.7 | -0.0473 | 77.8 | inactive
SRPX (sushi repeat containing protein X-linked) | 3 | -0.43 | 73.3 | -0.92 | 104 | inactive
FAM110B (family with sequence similarity 110 member B) | 1 | -1.94 | 43.2 | -0.853 | 60.5 | inactive
FAM110B (family with sequence similarity 110 member B) | 2 | 0.543 | 92.7 | -0.346 | 113 | inactive
FAM110B (family with sequence similarity 110 member B) | 3 | -1.76 | 46.8 | -2.01 | 88.9 | inactive
FBXO39 (F-box protein 39) | 1 | 1.71 | 116 | 0.898 | 102 | inactive
FBXO39 (F-box protein 39) | 2 | 0.534 | 92.5 | 0.0041 | 103 | inactive
FBXO39 (F-box protein 39) | 3 | -0.535 | 71.2 | -0.387 | 88.1 | inactive
DNASE1L1 (deoxyribonuclease 1 like 1) | 1 | 0.519 | 92.2 | 0.278 | 95.8 | inactive
DNASE1L1 (deoxyribonuclease 1 like 1) | 2 | -0.693 | 68.1 | -0.463 | 86 | inactive
DNASE1L1 (deoxyribonuclease 1 like 1) | 3 | 2.82 | 138 | 1.71 | 98.2 | inactive
ADAM19 (ADAM metallopeptidase domain 19) | 1 | -2.26 | 36.9 | -1.45 | 60.3 | inactive
ADAM19 (ADAM metallopeptidase domain 19) | 2 | 0.0466 | 82.8 | -0.258 | 99 | inactive
ADAM19 (ADAM metallopeptidase domain 19) | 3 | 0.312 | 88.1 | -0.32 | 107 | inactive
ZFAND3 (zinc finger AN1-type containing 3) | 1 | 1.47 | 111 | 1.44 | 84.9 | inactive
ZFAND3 (zinc finger AN1-type containing 3) | 2 | 0.296 | 87.8 | 0.437 | 87.4 | inactive
ZFAND3 (zinc finger AN1-type containing 3) | 3 | -0.505 | 71.8 | -0.0042 | 80.4 | inactive
FLG (filaggrin) | 1 | -1.21 | 57.9 | -1.35 | 92.4 | inactive
FLG (filaggrin) | 2 | -1.36 | 54.9 | -1.85 | 99.8 | inactive
FLG (filaggrin) | 3 | 0.723 | 96.3 | 0.024 | 107 | inactive
UPK2 (uroplakin 2) | 1 | 0.264 | 87.1 | -0.593 | 114 | inactive
UPK2 (uroplakin 2) | 2 | 0.0285 | 82.5 | 0.313 | 84.9 | inactive
UPK2 (uroplakin 2) | 3 | -0.0429 | 81 | 0.0247 | 90 | inactive
GPR6 (G protein-coupled receptor 6) | 1 | 0.595 | 93.7 | 0.238 | 98.4 | inactive
GPR6 (G protein-coupled receptor 6) | 2 | -2.6 | 30.1 | -1.93 | 56 | inactive
GPR6 (G protein-coupled receptor 6) | 3 | 0.5 | 91.8 | -0.0292 | 103 | inactive
LOC728417 | 1 | -0.234 | 77.2 | -0.581 | 101 | inactive
LOC728417 | 2 | 1.46 | 111 | 0.995 | 95.3 | inactive
LOC728417 | 3 | -0.251 | 76.9 | -0.321 | 93.5 | inactive
ATCAY (ATCAY kinesin light chain interacting caytaxin) | 1 | -0.0309 | 81.3 | -0.059 | 92.2 | inactive
ATCAY (ATCAY kinesin light chain interacting caytaxin) | 2 | 0.255 | 87 | -0.139 | 101 | inactive
ATCAY (ATCAY kinesin light chain interacting caytaxin) | 3 | 3.16 | 145 | 2.46 | 84.6 | active
STK26 (serine/threonine kinase 26) | 1 | 0.0253 | 82.4 | -0.501 | 105 | inactive
STK26 (serine/threonine kinase 26) | 2 | -0.586 | 70.2 | -0.75 | 95.6 | inactive
STK26 (serine/threonine kinase 26) | 3 | 0.0454 | 82.8 | -0.53 | 106 | inactive
EARS2 (glutamyl-tRNA synthetase 2, mitochondrial) | 1 | 0.695 | 95.7 | 1.2 | 78 | inactive
EARS2 (glutamyl-tRNA synthetase 2, mitochondrial) | 2 | -0.299 | 75.9 | -0.073 | 86.5 | inactive
EARS2 (glutamyl-tRNA synthetase 2, mitochondrial) | 3 | 0.639 | 94.6 | -0.311 | 115 | inactive

Sorted by “total luciferase, % of control” (highest first): 6 of the entries above
Gene | reagent no. | total luciferase, z-score | total luciferase, % of control | luciferase per cell, z-score | viable cells, % of control | Call
OR5L2 (olfactory receptor family 5 subfamily L member 2) | 3 | 2.99 | 141 | 2.44 | 83 | inactive
FAM110B (family with sequence similarity 110 member B) | 2 | 0.543 | 92.7 | -0.346 | 113 | inactive
SRPX (sushi repeat containing protein X-linked) | 1 | -0.413 | 73.7 | -1.11 | 110 | inactive
SRPX (sushi repeat containing protein X-linked) | 3 | -0.43 | 73.3 | -0.92 | 104 | inactive
SRPX (sushi repeat containing protein X-linked) | 2 | -0.661 | 68.7 | -0.0473 | 77.8 | inactive
FAM110B (family with sequence similarity 110 member B) | 1 | -1.94 | 43.2 | -0.853 | 60.5 | inactive
